Taken from: PubChem BioAssay AID686943 (Drosophila RNAi Screening Center, 2013)
The screen tested about 23,000 reagents; shown is an unselected part of those with a known target gene and a result. 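Extra replicates exist only for a retested subset of genes; insulin dose and duration not given; both raised and lowered dpERK matter.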 Reagents against one gene are numbered here. Further read-outs or replicates are left out here. Not stated in the record: the amount of reagent, the time to read-out.

Purpose: 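Fly genes whose loss alters ERK activation after insulin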 (primary screen)
System: Drosophila S2R+ haemocyte-like cells expressing YFP-tagged ERK (Rolled)
Reagent: long dsRNA against Drosophila genes
Treatment: insulin stimulation versus unstimulated cells; dose and duration not given
Detection: 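Antibody staining for doubly phosphorylated ERK divided by ERK-YFP signal, as plate z-scores, in insulin-treated and untreated cells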
Direction: replicate 1, z-score of dpERK with insulin and replicate 2, z-score of dpERK with insulin: higher = more active ERK per ERK-YFP after insulin

With Chsy (Chondroitin sulfate synthase) #1, what does the deposit list?
replicate 1, z-score of dpERK with insulin: -0.46; replicate 2, z-score of dpERK with insulin: -0.01

With Chsy (Chondroitin sulfate synthase) #2, what does the deposit list?
replicate 1, z-score of dpERK with insulin: 0.23; replicate 2, z-score of dpERK with insulin: 0.23

For CG43062, what was measured?
replicate 1, z-score of dpERK with insulin: 0.13; replicate 2, z-score of dpERK with insulin: 0.19

For CG10555, what was measured?
replicate 1, z-score of dpERK with insulin: -0.17; replicate 2, z-score of dpERK with insulin: 0.32

For CG8209, how do the results read?
replicate 1, z-score of dpERK with insulin: 0.75; replicate 2, z-score of dpERK with insulin: 0.06

What is on record for CG6607?
replicate 1, z-score of dpERK with insulin: 1.74; replicate 2, z-score of dpERK with insulin: 0.02

With CG7763, what was measured?
replicate 1, z-score of dpERK with insulin: -0.34; replicate 2, z-score of dpERK with insulin: 0.17

For Naa20A (N(alpha)-acetyltransferase 20 A), what was measured?
replicate 1, z-score of dpERK with insulin: -0.27; replicate 2, z-score of dpERK with insulin: 0.49

With Ir52d (Ionotropic receptor 52d), what does the deposit list?
replicate 1, z-score of dpERK with insulin: 0.14; replicate 2, z-score of dpERK with insulin: 0.17

For grim, what does the deposit list?
replicate 1, z-score of dpERK with insulin: -1.13; replicate 2, z-score of dpERK with insulin: 0.3

Which result is listed for CG16984?
replicate 1, z-score of dpERK with insulin: 0.26; replicate 2, z-score of dpERK with insulin: 1.65

With spen (split ends), what does the deposit list?
replicate 1, z-score of dpERK with insulin: 1.28; replicate 2, z-score of dpERK with insulin: 0.2

How did the screen score CG32017?
replicate 1, z-score of dpERK with insulin: -0.33; replicate 2, z-score of dpERK with insulin: 0.01

With Acbp3 (Acyl-CoA binding protein 3), how do the results read?
replicate 1, z-score of dpERK with insulin: -1.01; replicate 2, z-score of dpERK with insulin: 0.04

How did the screen score AstCC (Allatostatin double C)?
replicate 1, z-score of dpERK with insulin: 0.07; replicate 2, z-score of dpERK with insulin: 0.66

Which result is listed for CG14324?
replicate 1, z-score of dpERK with insulin: -0.13; replicate 2, z-score of dpERK with insulin: 0.48

For sim (single-minded), how do the results read?
replicate 1, z-score of dpERK with insulin: -0.23; replicate 2, z-score of dpERK with insulin: 0

For Vha36-1 (Vacuolar H[+] ATPase 36kD subunit 1), what does the deposit list?
replicate 1, z-score of dpERK with insulin: -0.16; replicate 2, z-score of dpERK with insulin: -1.6

How did the screen score Nt5c (5' nucleotidase C)?
replicate 1, z-score of dpERK with insulin: 1.52; replicate 2, z-score of dpERK with insulin: 0.99

With Dronc (Death regulator Nedd2-like caspase), what was measured?
replicate 1, z-score of dpERK with insulin: -0.08; replicate 2, z-score of dpERK with insulin: -0.63

What is on record for CG31819?
replicate 1, z-score of dpERK with insulin: 0.39; replicate 2, z-score of dpERK with insulin: 0.17

Reformatted: 3 of the entries above
target | reagent no. | replicate 1, z-score of dpERK with insulin | replicate 2, z-score of dpERK with insulin
Naa20A (N(alpha)-acetyltransferase 20 A) | 1 | -0.27 | 0.49
Ir52d (Ionotropic receptor 52d) | 1 | 0.14 | 0.17
grim | 1 | -1.13 | 0.3
